According to the supplement of paper PMC10849652:
The list shows a part of the results.

The chains behind the UniProt entries cited, without tags or fusion partners. Where a name states a change or a piece, a line headed by the entry shows the natural chain unless it says otherwise.
UniProt O75477: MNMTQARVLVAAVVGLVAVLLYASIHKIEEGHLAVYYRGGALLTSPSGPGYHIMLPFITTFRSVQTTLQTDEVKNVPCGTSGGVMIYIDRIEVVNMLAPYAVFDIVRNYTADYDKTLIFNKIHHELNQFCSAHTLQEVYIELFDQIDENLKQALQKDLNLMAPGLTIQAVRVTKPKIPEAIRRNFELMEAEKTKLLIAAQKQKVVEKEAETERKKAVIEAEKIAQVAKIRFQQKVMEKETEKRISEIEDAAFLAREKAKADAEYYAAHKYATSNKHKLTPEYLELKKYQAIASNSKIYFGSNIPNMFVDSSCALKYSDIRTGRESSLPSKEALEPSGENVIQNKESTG
UniProt Q9BPY3: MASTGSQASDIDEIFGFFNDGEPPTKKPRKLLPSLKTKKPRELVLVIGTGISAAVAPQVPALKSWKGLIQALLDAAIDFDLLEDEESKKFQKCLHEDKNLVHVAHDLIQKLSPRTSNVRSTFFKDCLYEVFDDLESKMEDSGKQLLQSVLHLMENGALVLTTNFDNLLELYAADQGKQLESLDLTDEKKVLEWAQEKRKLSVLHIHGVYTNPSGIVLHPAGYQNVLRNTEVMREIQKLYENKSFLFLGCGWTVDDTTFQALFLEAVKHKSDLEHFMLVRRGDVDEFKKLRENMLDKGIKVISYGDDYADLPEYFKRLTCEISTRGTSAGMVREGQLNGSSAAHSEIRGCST
UniProt Q9NWS6: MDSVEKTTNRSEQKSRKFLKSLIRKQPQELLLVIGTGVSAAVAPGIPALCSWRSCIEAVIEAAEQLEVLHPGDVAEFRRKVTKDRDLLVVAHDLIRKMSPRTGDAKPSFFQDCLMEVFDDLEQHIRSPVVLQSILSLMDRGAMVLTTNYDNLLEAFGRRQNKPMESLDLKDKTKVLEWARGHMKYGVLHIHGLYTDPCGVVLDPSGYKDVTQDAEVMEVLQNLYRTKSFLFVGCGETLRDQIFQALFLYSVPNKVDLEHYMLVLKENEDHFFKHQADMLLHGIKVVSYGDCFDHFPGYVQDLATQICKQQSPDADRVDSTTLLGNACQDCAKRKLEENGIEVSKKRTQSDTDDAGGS
UniProt Q5RKV6, whole entry, looked up: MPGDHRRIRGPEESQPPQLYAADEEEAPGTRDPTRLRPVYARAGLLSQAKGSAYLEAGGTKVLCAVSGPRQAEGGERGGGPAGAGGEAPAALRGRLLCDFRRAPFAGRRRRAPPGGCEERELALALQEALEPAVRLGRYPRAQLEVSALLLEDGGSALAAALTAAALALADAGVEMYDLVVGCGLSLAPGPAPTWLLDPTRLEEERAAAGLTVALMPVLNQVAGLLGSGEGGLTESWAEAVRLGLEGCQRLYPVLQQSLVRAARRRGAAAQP
UniProt Q9Y3B2, whole entry, looked up: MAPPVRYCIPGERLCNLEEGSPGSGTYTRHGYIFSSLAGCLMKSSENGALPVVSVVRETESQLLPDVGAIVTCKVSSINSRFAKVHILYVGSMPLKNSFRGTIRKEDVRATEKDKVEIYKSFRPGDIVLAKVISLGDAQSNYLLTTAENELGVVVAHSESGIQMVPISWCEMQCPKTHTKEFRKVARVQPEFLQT
UniProt Q01780: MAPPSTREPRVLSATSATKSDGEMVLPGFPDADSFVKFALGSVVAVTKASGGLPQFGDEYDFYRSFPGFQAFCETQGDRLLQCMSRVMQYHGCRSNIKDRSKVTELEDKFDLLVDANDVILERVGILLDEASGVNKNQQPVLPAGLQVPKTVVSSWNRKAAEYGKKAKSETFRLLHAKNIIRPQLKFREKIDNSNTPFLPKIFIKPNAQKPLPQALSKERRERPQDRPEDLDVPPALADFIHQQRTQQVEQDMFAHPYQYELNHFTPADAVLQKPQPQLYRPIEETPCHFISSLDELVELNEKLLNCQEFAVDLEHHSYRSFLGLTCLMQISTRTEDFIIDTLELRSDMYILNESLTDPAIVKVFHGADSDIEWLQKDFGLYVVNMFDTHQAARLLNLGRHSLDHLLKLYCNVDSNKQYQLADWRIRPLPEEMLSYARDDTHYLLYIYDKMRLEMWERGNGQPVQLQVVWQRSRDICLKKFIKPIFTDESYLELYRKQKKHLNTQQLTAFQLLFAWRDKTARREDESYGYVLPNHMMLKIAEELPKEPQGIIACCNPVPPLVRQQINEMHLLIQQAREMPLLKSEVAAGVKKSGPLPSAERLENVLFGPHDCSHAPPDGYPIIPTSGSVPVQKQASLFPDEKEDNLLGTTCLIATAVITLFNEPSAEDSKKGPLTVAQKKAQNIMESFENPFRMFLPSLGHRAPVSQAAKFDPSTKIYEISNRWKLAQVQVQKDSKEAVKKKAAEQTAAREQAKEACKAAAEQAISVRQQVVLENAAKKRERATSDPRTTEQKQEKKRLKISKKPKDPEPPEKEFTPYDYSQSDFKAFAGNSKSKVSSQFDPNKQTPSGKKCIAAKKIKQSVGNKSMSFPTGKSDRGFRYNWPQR
UniProt Q14320: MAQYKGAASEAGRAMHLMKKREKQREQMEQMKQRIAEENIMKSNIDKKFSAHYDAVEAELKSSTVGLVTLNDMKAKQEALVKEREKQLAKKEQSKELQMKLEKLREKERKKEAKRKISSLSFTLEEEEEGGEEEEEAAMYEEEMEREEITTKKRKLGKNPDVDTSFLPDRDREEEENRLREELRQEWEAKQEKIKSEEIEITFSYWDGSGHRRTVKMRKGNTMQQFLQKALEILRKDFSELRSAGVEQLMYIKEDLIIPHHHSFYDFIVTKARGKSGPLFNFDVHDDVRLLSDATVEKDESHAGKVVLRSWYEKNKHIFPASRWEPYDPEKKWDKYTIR
UniProt P15311, whole entry, looked up: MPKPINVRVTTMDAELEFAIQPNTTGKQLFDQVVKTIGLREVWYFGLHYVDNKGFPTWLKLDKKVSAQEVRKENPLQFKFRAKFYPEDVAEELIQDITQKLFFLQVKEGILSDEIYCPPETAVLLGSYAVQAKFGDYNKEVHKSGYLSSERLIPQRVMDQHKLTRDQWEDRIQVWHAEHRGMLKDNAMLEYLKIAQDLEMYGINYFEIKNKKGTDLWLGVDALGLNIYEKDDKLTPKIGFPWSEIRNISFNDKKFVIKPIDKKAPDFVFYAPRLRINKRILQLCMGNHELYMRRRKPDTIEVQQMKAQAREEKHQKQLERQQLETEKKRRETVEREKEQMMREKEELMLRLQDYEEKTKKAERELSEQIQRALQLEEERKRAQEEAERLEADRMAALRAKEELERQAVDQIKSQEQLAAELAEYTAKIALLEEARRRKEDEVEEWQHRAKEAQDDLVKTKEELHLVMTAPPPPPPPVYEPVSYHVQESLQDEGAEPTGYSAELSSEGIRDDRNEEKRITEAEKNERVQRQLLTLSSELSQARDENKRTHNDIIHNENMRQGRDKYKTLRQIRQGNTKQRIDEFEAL
UniProt Q16134: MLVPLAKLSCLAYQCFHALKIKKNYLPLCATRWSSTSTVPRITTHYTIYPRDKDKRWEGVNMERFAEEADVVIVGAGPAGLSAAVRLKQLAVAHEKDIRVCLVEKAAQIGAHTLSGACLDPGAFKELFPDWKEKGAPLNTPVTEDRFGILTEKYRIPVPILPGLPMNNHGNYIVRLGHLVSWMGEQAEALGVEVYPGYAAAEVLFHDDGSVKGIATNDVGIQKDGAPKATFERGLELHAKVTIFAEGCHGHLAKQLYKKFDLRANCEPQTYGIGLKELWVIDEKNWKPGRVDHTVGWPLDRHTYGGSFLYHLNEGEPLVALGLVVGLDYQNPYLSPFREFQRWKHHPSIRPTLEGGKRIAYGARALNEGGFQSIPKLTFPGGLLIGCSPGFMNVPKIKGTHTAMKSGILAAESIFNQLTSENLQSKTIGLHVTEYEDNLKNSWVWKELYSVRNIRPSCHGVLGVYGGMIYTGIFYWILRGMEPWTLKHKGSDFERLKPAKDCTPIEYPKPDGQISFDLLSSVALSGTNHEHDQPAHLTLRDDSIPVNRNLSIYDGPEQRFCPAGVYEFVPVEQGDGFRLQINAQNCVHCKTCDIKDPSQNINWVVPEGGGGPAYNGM
UniProt Q15910, whole entry, looked up: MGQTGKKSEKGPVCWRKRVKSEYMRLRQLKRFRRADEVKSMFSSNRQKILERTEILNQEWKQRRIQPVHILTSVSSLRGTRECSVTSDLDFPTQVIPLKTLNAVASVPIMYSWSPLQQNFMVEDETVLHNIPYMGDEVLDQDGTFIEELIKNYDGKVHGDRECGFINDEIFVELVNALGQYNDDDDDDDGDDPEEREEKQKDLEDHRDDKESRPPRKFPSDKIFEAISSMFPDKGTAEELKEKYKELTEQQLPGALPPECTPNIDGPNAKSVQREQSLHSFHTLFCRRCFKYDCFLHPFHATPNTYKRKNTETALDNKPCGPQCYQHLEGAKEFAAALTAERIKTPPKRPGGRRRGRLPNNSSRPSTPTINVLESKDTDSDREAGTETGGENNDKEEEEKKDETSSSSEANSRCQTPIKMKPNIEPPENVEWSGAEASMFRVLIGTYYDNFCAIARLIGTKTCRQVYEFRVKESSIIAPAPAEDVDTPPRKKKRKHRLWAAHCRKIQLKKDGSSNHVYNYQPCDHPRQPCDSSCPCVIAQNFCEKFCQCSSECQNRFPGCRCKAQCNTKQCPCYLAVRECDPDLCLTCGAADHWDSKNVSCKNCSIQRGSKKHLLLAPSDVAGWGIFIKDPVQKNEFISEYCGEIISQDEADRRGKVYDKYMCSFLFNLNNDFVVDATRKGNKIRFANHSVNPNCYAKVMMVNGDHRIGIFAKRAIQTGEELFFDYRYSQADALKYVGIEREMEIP
UniProt O60645: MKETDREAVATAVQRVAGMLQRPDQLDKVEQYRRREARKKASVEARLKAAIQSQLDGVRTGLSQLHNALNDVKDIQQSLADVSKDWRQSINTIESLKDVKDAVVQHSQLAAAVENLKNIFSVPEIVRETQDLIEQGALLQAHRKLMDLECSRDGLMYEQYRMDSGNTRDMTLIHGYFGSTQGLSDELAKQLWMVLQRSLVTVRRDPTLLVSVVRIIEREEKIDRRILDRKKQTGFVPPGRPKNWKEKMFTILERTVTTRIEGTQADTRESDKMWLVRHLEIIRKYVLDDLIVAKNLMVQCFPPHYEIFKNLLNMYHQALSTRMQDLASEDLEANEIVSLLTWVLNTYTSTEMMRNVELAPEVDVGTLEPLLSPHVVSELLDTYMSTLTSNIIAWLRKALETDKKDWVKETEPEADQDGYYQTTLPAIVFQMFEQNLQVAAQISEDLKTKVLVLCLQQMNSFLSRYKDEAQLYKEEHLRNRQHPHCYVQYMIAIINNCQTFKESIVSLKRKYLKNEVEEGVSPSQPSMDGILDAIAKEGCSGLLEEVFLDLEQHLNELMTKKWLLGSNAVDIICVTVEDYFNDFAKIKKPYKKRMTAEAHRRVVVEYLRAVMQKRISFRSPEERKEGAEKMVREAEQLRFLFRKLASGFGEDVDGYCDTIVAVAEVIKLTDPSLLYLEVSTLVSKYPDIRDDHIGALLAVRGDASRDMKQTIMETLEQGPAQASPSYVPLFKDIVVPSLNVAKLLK
UniProt Q96A65: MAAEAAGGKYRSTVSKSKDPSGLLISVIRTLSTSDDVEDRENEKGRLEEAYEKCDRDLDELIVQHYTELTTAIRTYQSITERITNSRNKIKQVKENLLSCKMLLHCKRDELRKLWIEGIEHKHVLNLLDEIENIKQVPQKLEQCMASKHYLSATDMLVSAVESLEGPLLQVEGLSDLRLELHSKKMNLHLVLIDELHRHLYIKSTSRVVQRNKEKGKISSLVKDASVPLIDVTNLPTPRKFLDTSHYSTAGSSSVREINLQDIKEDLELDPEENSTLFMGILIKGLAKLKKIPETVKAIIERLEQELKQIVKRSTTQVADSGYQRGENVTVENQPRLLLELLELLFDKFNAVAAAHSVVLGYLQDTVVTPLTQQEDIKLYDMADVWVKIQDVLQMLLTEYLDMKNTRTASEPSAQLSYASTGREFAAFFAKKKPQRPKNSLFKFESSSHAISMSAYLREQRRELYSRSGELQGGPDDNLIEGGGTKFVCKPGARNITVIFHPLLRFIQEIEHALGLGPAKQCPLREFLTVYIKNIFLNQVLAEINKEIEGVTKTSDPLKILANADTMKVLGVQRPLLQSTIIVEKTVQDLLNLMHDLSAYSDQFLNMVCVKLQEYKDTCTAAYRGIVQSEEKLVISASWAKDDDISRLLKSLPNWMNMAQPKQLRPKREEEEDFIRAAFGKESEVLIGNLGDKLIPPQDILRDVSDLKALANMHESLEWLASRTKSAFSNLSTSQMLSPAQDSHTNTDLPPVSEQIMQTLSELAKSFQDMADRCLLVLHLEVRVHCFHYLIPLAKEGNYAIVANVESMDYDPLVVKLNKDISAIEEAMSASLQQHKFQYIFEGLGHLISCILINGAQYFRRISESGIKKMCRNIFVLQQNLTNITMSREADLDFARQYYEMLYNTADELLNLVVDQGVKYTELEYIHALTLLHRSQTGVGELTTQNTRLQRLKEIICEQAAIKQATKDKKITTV

Columns and labels:
Assay in all cases: log2 fold change, soluble protein after heating vs DMSO (PISA); higher = thermal stabilisation; K562 lysate, 10 uM; active = over 0.2 and 3.5 SD of the protein, either way, in both replicates (recomputed)
erlotinib = compound: C#Cc1cccc(Nc2ncnc3cc(OCCOC)c(OCCOC)cc23)c1 [erlotinib]
In short: (§1)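 The values are log-two fold changes in thermal stability compared with solvent controls and come from duplicates. They were obtained by TMTpro 16plex LC-MS/MS, with channel sums equalised, on the supernatant after 21,000xg for 90 min. That supernatant came from crude K562 extract at 1 mg/mL protein treated with 10 μM compound for 30 min, heated for 3 min across 48°C-58°C, pooled and brought to 0.5% NP-40 at 4°C.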

[1] = compound: C/C(=N\NC(=O)C1=CC(=CC=C1)S(=O)(=O)N2CCOCC2)/C3=C(C=CC(=C3)Cl)O
In short: as §1

[2] = compound: C1=CC(=CC=C1C2=NC3=C(N2)C=C(C=C3)C(=O)N)OC4=CC=C(C=C4)Cl
In short: as §1

[3] = compound: C1=CC2=C(C=CC(=C2)/C=C\3/C(=O)NC(=NCC4=CC=CS4)S3)N=C1
In short: as §1

[4] = compound: C1=CC2=NC=CN=C2C=C1/C=C/3\C(=O)NC(=O)S3
In short: as §1

[5] = compound: C1=CC=C(C=C1)C2=NC(=C(N2)C3=CC=NC=C3)C4=CC(=C(C=C4)Cl)O
In short: as §1

[6] = compound: C1=CC=C2C(=C1)C3=NNC4=CC=CC(=C43)C2=O
In short: as §1

[7] = compound: C1CCN(C1)C(=O)NC2=CC=CC(=C2)NC3=NC=C(C(=N3)NCCC4=CN=CN4)Br
In short: as §1

[8] = compound: C1CN(CCC1(CC2=CC=C(C=C2)Cl)N)C3=NC=NC4=C3C=CN4
In short: as §1

IRAK-1-4 Inhibitor I = compound: C1COCCN1CCN2C3=CC=CC=C3N=C2NC(=O)C4=CC(=CC=C4)[N+](=O)[O-] [IRAK-1-4 Inhibitor I]
In short: as §1

ibrutinib = compound: C=CC(=O)N1CCC[C@@H](n2nc(-c3ccc(Oc4ccccc4)cc3)c3c(N)ncnc32)C1 [ibrutinib]
In short: as §1

[9] = compound: CC(=O)c1cnc2ccc(-c3cc(Cl)c(O)c(Cl)c3)nc2c1N[C@H]1CC[C@H](CN(C)C)CC1
In short: as §1

ralimetinib = compound: CC(C)(C)Cn1c(N)nc2ccc(-c3[nH]c(C(C)(C)C)nc3-c3ccc(F)cc3)nc21 [ralimetinib]
In short: as §1

[10] = compound: CC(C)(O)CC(=O)NCCn1ccc2ncnc(Nc3ccc(Oc4cccc(C(F)(F)F)c4)c(Cl)c3)c21
In short: as §1

[11] = compound: CC(C)C1=C2N=C(C=C(N2N=C1)NCC3=CC=CC=C3)NCCCCCCN
In short: as §1

[12] = compound: CC1=C(C(CC(=O)N1)C2=CC=C(C=C2)C(F)(F)F)C(=O)NC3=C(C=C4C(=C3)C=NN4)F
In short: as §1

[13] = compound: CC1=C(C2=C(C=C1)C(=O)C3=CC=CC=C3N2CCCN)C
In short: as §1

[14] = compound: CC1=C(C=C(C=C1)NC(=O)C2=CC(=CC=C2)C(C)(C)C#N)NC3=CC4=C(C=C3)N=CN(C4=O)C
In short: as §1

[15] = compound: CC1=C(C=C(C=C1)NC(=O)C2=CC(=CC=C2)N(C)C)NC(=O)C3=CC=C(C=C3)O
In short: as §1

[16] = compound: CC1=CC=C(C=C1)SC2=C3C=C(SC3=CN=C2)C(=O)N
In short: as §1

Measured: log2 fold change

EWSR1 isoform 5 (UniProt Q01844)
inactive: erlotinib -0.135 | [1] -0.037 | [2] -0.1 | [3] 0.012 | [4] 0.015 | [5] 0.037 | [6] 0.015 | [7] -0.009 | [8] -0.028 | IRAK-1-4 Inhibitor I 0.018 | ibrutinib -0.016 | [9] -0.026 | ralimetinib -0.017 | [10] -0.011 | [11] 0.038 | [12] -0.012 | [13] 0.016 | [14] -0.023 | [15] -0.033 | [16] 0

ERP44 (UniProt Q9BS26)
inactive: erlotinib -0.032 | [1] 0.015 | [2] 0.009 | [3] 0 | [4] -0.009 | [5] -0.022 | [6] -0.011 | [7] 0.007 | [8] 0 | IRAK-1-4 Inhibitor I -0.011 | ibrutinib 0.055 | [9] -0.017 | ralimetinib 0.02 | [10] -0.019 | [11] 0.006 | [12] 0.003 | [13] 0.008 | [14] -0.017 | [15] 0.004 | [16] -0.003

ERLIN1 (UniProt O75477)
inactive: erlotinib -0.031 | [1] 0.123 | [2] -0.17 | [3] 0.072 | [4] -0.038 | [5] 0.015 | [6] -0.02 | [7] -0.015 | [8] -0.046 | IRAK-1-4 Inhibitor I -0.071 | ibrutinib 0.005 | [9] 0.034 | ralimetinib -0.011 | [10] 0.038 | [11] -0.007 | [12] 0.044 | [13] 0.005 | [14] -0.052 | [15] -0.008 | [16] 0.012

FAM118B (UniProt Q9BPY3)
inactive: erlotinib -0.004 | [1] 0.051 | [2] 0.004 | [3] 0.061 | [4] 0.03 | [5] -0.01 | [6] -0.012 | [7] 0.013 | [8] -0.004 | IRAK-1-4 Inhibitor I -0.03 | ibrutinib 0.066 | [9] -0.016 | ralimetinib 0.015 | [10] -0.019 | [11] 0.023 | [12] -0.01 | [13] 0.012 | [14] -0.012 | [15] 0.03 | [16] 0.008

FAM118A (UniProt Q9NWS6)
inactive: erlotinib 0.03 | [1] -0.03 | [2] -0.016 | [3] 0.022 | [4] 0.029 | [5] 0.012 | [6] -0.006 | [7] 0.021 | [8] 0.048 | IRAK-1-4 Inhibitor I 0.051 | ibrutinib -0.024 | [9] 0.01 | ralimetinib 0.041 | [10] -0.052 | [11] -0.01 | [12] -0.004 | [13] -0.052 | [14] 0.015 | [15] 0.014 | [16] -0.004

EXOSC6 (UniProt Q5RKV6)
inactive: erlotinib 0 | [1] 0.071 | [2] -0.004 | [3] -0.02 | [4] -0.013 | [5] 0.004 | [6] 0.02 | [7] 0.035 | [8] 0.004 | IRAK-1-4 Inhibitor I 0.014 | ibrutinib -0.005 | [9] 0.017 | ralimetinib -0.01 | [10] -0.024 | [11] 0.004 | [12] -0.02 | [13] -0.009 | [14] 0.03 | [15] -0.018 | [16] 0.021

Taken from the entries so far (two entries):
ERLIN1 (UniProt O75477)
inactive: erlotinib -0.031 | [1] 0.123 | [2] -0.17 | [3] 0.072 | [4] -0.038 | [5] 0.015 | [6] -0.02 | [7] -0.015 | [8] -0.046 | IRAK-1-4 Inhibitor I -0.071 | ibrutinib 0.005 | [9] 0.034 | ralimetinib -0.011 | [10] 0.038 | [11] -0.007 | [12] 0.044 | [13] 0.005 | [14] -0.052 | [15] -0.008 | [16] 0.012

FAM118B (UniProt Q9BPY3)
inactive: erlotinib -0.004 | [1] 0.051 | [2] 0.004 | [3] 0.061 | [4] 0.03 | [5] -0.01 | [6] -0.012 | [7] 0.013 | [8] -0.004 | IRAK-1-4 Inhibitor I -0.03 | ibrutinib 0.066 | [9] -0.016 | ralimetinib 0.015 | [10] -0.019 | [11] 0.023 | [12] -0.01 | [13] 0.012 | [14] -0.012 | [15] 0.03 | [16] 0.008

(cont.)

EXOSC1 (UniProt Q9Y3B2)
inactive: erlotinib 0.225 | [1] 0.031 | [2] -0.065 | [3] -0.028 | [4] 0.052 | [5] 0.057 | [6] 0.001 | [7] -0.021 | [8] 0.001 | IRAK-1-4 Inhibitor I -0.039 | ibrutinib -0.016 | [9] 0.032 | ralimetinib -0.02 | [10] 0.006 | [11] -0.053 | [12] -0.019 | [13] -0.041 | [14] -0.013 | [15] 0.035 | [16] 0.034

EXOSC10 (UniProt Q01780)
inactive: erlotinib 0.047 | [1] -0.004 | [2] 0.021 | [3] 0.04 | [4] -0.015 | [5] 0.053 | [6] 0.038 | [7] -0.011 | [8] 0.005 | IRAK-1-4 Inhibitor I 0.016 | ibrutinib 0 | [9] -0.022 | ralimetinib -0.062 | [10] -0.096 | [11] 0.027 | [12] 0.014 | [13] -0.059 | [14] -0.019 | [15] 0 | [16] 0.009

FAM50A (UniProt Q14320)
inactive: erlotinib -0.058 | [1] -0.019 | [2] -0.004 | [3] -0.023 | [4] -0.029 | [5] -0.016 | [6] 0.031 | [7] 0.021 | [8] -0.02 | IRAK-1-4 Inhibitor I -0.036 | ibrutinib 0.005 | [9] -0.017 | ralimetinib 0.052 | [10] 0.027 | [11] -0.016 | [12] 0.014 | [13] -0.001 | [14] -0.035 | [15] -0.028 | [16] -0.03

EZR (UniProt P15311)
inactive: erlotinib -0.029 | [1] 0.019 | [2] 0.014 | [3] -0.009 | [4] -0.025 | [5] 0 | [6] 0.024 | [7] 0.002 | [8] 0.001 | IRAK-1-4 Inhibitor I -0.007 | ibrutinib 0.017 | [9] -0.009 | ralimetinib -0.026 | [10] 0.006 | [11] -0.003 | [12] -0.012 | [13] 0 | [14] -0.007 | [15] -0.004 | [16] 0.001

ETFDH (UniProt Q16134)
inactive: erlotinib -0.024 | [1] 0.031 | [2] 0.006 | [3] -0.034 | [4] 0.008 | [5] -0.006 | [6] -0.009 | [7] 0.108 | [8] 0.021 | IRAK-1-4 Inhibitor I 0.034 | ibrutinib -0.012 | [9] -0.02 | ralimetinib 0.017 | [10] -0.045 | [11] -0.031 | [12] 0.001 | [13] -0.029 | [14] -0.002 | [15] -0.002 | [16] -0.001

ERMP1 (UniProt Q7Z2K6)
inactive: erlotinib 0.015 | [1] -0.002 | [2] -0.009 | [3] 0.019 | [4] -0.004 | [5] -0.012 | [6] -0.041 | [7] 0.002 | [8] 0.016 | IRAK-1-4 Inhibitor I 0.002 | ibrutinib 0.041 | [9] 0.002 | ralimetinib -0.01 | [10] -0.028 | [11] 0.025 | [12] -0.052 | [13] 0.001 | [14] 0.031 | [15] 0.057 | [16] 0.007

EXOSC2 (UniProt Q13868)
inactive: erlotinib 0.011 | [1] 0.008 | [2] 0.016 | [3] -0.006 | [4] -0.011 | [5] -0.006 | [6] -0.003 | [7] 0.008 | [8] 0.041 | IRAK-1-4 Inhibitor I 0.018 | ibrutinib 0.015 | [9] -0.008 | ralimetinib 0.004 | [10] 0.003 | [11] -0.019 | [12] 0.007 | [13] -0.004 | [14] 0.008 | [15] 0.001 | [16] -0.004

EZH2 isoform 2 (UniProt Q15910)
inactive: erlotinib 0.051 | [1] -0.148 | [2] 0.035 | [3] -0.003 | [4] 0.109 | [5] -0.011 | [6] 0.023 | [7] 0.059 | [8] -0.099 | IRAK-1-4 Inhibitor I -0.021 | ibrutinib 0.086 | [9] 0.023 | ralimetinib 0.001 | [10] 0.004 | [11] 0.002 | [12] 0 | [13] -0.01 | [14] 0.004 | [15] 0.003 | [16] -0.021

EXOC3 (UniProt O60645)
inactive: erlotinib 0.033 | [1] 0.027 | [2] 0.006 | [3] 0.033 | [4] 0.039 | [5] 0.011 | [6] -0.04 | [7] 0.018 | [8] -0.001 | IRAK-1-4 Inhibitor I 0.013 | ibrutinib -0.029 | [9] -0.012 | ralimetinib 0.025 | [10] 0.048 | [11] 0.025 | [12] 0 | [13] -0.042 | [14] 0.037 | [15] 0.067 | [16] 0.004

EXOC4 (UniProt Q96A65)
inactive: erlotinib 0.031 | [1] 0.034 | [2] -0.065 | [3] 0.031 | [4] 0.012 | [5] -0.015 | [6] -0.026 | [7] -0.011 | [8] 0.011 | IRAK-1-4 Inhibitor I -0.009 | ibrutinib -0.004 | [9] -0.011 | ralimetinib 0.014 | [10] -0.031 | [11] -0.003 | [12] -0.013 | [13] 0.022 | [14] -0.031 | [15] 0.02 | [16] 0.002
